These are yes or no findings as the source states them, for the method shown. For some assays here: Binding seen in cells or lysates may run through a third protein. Some entries that bind do so weakly or less than the wild type. For some assays here: Tags and fused reporters may be left off the sequences shown.

Assay [1] deals with T1, ICE1FL-myc (Arabidopsis thaliana, UniProt Q9LSE2 1-494).
T1 sequence (looked up): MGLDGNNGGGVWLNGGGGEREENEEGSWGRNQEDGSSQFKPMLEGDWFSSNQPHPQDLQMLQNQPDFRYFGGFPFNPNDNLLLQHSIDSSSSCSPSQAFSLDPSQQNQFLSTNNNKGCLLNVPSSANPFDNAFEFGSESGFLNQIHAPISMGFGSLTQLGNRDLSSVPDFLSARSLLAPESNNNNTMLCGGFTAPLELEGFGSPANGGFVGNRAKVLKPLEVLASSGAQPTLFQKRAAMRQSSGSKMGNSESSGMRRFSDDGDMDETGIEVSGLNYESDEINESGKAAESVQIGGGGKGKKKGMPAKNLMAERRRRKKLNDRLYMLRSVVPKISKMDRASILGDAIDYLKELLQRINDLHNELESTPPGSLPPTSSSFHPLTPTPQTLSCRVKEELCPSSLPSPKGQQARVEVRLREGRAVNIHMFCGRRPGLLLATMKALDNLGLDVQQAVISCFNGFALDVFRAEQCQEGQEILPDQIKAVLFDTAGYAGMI
The experiment in a line: co-IP; co-infiltrated tobacco (N. benthamiana) leaves; total proteins immunoprecipitated with anti-myc antibody on Protein G magnetic beads; blots with anti-GFP and anti-myc.

Assay [2] concerns the target T2, BIN2-myc (Arabidopsis thaliana) (UniProt Q39011).
T2 sequence: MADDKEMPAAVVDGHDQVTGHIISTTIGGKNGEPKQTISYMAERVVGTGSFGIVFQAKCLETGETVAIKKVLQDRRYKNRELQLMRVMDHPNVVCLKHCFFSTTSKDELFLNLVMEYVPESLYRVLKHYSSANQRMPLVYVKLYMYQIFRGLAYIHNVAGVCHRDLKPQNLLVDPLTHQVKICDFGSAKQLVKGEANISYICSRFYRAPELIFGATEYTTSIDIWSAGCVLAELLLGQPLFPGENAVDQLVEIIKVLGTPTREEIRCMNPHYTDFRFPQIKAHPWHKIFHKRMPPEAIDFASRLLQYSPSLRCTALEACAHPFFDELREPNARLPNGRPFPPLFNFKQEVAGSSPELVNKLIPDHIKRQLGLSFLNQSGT
The description is as above.

Assay [3] addresses T3, ICE1FL-cCFP (Arabidopsis thaliana) (UniProt Q9LSE2).
T3 sequence: T1 sequence (looked up)
The experiment in a line: split reporter; BiFC with nYFP and cCFP fusions co-infiltrated by Agrobacterium into tobacco (N. benthamiana) leaves; epidermal cells seen by confocal microscopy after 36-48 h.

For assay [4], the target named is T4, full-length protein of ICE1 (ICE1FL-pGBKT7) (Arabidopsis thaliana) (UniProt Q9LSE2).
T4 sequence: T1 sequence (looked up)
The experiment in a line: two-hybrid; pGBKT7 and pGADT7 constructs co-transformed into S. cerevisiae AH109; beta-galactosidase activity with chlorophenol red-beta-D-galactopyranoside as substrate.

For assay [5], the target named is T5, full-length AIF2 (AIF2FL) of the yeast test against ICE1 proteins and BIN2-pGADT7 (Fig. 4C) (Arabidopsis thaliana) (UniProt Q9C8Z9).
T5 sequence: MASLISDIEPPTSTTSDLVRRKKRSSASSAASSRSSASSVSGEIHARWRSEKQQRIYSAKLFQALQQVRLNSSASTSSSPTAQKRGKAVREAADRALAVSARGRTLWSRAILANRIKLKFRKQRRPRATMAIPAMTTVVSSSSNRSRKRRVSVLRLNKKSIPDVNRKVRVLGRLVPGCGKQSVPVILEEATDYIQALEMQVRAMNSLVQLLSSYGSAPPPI
The assay is described as above.

B1: AIF2FL-nYFP (natural protein, Arabidopsis thaliana, UniProt Q9C8Z9 1-221, looked up)
chain: T5 sequence
Consider B1, for which the binding result in assay [1], in assay [2] and in assay [3] was “binds” each time.

B2: full-length AIF2 in pGADT7 (AIF2FL) (protein, UniProt Q9C8Z9 1-221)
chain: T5 sequence
Consider B2, for which the binding result in assay [4] is listed as “binds”.

B3: full-length ICE1 (ICE1FL) of the yeast test against AIF2FL (Fig. 4C) (protein, UniProt Q9LSE2 1-494)
chain: T1 sequence (looked up)
Take B3: the binding result in assay [5] is “binds”.

(Values after paper PMC7031079, “ATBS1-INTERACTING FACTOR 2 negatively regulates dark- and brassinosteroid-induced leaf senescence through interactions with INDUCER OF CBF EXPRESSION 1” (Journal of Experimental Botany, 2019).)
